In all, about 390,000 compounds went through this assay and about 4,000 (1%) were called active. This list was built around the results that the source calls inconclusive (neither active nor inactive); the mix of calls is not that of the screen. Calls come from the whole dose curve; as a rule, active = well fitted inhibition curve with a large enough effect; inconclusive = small, poorly fitted or top-dose-only effect, or another doubt; inactive = no such curve, though single readings can be large or run the other way. Where the call is inconclusive, the potency comes from a doubtful curve fit. Residues, ends and D or L forms follow the SMILES beside them.
What follows are compounds tested against DNA polymerase iota (Homo sapiens) (UniProt Q9UNA4) (assay: qHTS for Inhibitors of Polymerase Iota). Details: Pol iota fluorescent replication assay, 10 min; series mostly up to 115 µM.
Procedure, shortened: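 Fluorescent replication assay read twice, at 0 min and 10 min after adding 50 nM (final) substrate. Enzyme (10 nM) and compounds were first incubated 15 min at room temperature; enzyme-free buffer wells were negative controls.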
Potency is the fitted concentration of half-maximal effect.

The chains behind the UniProt entries cited, without tags or fusion partners. Where a name states a change or a piece, a line headed by the entry shows the natural chain unless it says otherwise.
UniProt Q9UNA4: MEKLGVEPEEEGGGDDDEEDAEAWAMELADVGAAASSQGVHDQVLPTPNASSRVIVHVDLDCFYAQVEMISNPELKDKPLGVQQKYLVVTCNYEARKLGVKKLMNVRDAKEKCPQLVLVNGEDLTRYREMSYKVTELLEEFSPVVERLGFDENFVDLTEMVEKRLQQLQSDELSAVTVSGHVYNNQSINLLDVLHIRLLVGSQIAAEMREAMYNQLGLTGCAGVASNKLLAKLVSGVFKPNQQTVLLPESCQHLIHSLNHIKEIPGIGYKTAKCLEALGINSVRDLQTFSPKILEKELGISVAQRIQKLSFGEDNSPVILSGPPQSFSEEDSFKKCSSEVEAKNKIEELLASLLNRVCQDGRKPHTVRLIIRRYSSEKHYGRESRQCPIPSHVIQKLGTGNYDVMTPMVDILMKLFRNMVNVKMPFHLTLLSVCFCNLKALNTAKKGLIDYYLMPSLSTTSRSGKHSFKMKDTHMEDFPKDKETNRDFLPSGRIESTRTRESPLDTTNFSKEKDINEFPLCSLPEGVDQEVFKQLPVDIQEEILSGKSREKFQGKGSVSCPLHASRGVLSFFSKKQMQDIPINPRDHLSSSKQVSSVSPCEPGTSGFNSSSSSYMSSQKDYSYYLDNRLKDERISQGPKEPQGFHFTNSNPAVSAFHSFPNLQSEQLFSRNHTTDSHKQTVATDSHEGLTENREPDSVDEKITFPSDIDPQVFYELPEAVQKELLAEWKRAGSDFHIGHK

How did the Potency turn out when `C=CCn1c(SCC(=O)Nc2ccc(C(=O)O)cc2)nc2sc(C)c(C)c2c1=O` was run?
The Potency was “inactive”.

Which Potency does the source give for `Cc1ccc(C(=O)N/C(=C\c2ccc(-c3cccc([N+](=O)[O-])c3)o2)C(=O)NCCCN2CCOCC2)cc1` here?
Its Potency is inconclusive: 70.8 µM [inhibitor, partial curve, poor fit].

For `Cc1[nH][nH]c(=O)c1C(c1ccc(-c2cccc(Cl)c2)o1)c1c(C)[nH][nH]c1=O`, which Potency is on record?
Its Potency is active: 2.82 µM.

Which Potency does the source give for `CS(=O)(=O)c1ccc(C(=O)OCC(=O)NCC2CCCO2)cc1[N+](=O)[O-]` (centres undefined) here?
Its Potency is “inactive”.

How did the Potency turn out when `OC(CNC1CCCC1)COc1ccc(F)cc1` (centres undefined) was run?
The Potency was inconclusive: 70.8 µM [inhibitor, single point].

`CC(=O)c1ccc(S(=O)(=O)N2Cc3ccccc3CC2C(=O)O)cc1` (centres undefined) was tested. Which Potency did it give?
The Potency was inconclusive: 11.2 µM [inhibitor, full curve, poor fit].

How did the Potency turn out when `CCc1nnc(NC(=O)c2cc(-c3ccccn3)nc3ccc(Br)cc23)s1` was run?
The Potency was inconclusive: 20 µM [inhibitor, partial curve, poor fit].

`Cc1ccc2c(c1)c1c3n2CCN(C(=O)c2cccc(C(F)(F)F)c2)C3CCC1` (centres undefined) was tested. Which Potency did it give?
The Potency was “inactive”.

`O=C(Nc1cccc(F)c1)c1cc(-c2ccco2)nc2ccccc12` was tested. Which Potency did it give?
The Potency was active: 50.1 µM.

For `O=S(=O)(c1ccc(Cl)cc1Cl)n1ccnc1`, which Potency is on record?
Its Potency is inconclusive: 70.8 µM [inhibitor, single point].

For `NC(=O)C(CC(=O)O)NC(=O)[C@@H]1CCOc2c(I)cc([N+](=O)[O-])cc2C(=O)N[C@@H](CCC(=O)O)C(=O)N[C@@H](CO)C(=O)N1` (some centres undefined) (HELM PEPTIDE1{E.S.[O=C([C@H](CCOc1c(I)cc([N+](=O)[O-])cc1C(=O)[*:3])N[*:1])[*:2]].[O=C(O)CC(N[*:1])C(=O)[*:2]].[am]}$PEPTIDE1,PEPTIDE1,1:R1-3:R3$$$V2.0), which Potency is on record?
The Potency was inconclusive: 4.47 µM [inhibitor, full curve].

`O=C([C@@H]1CC=C[C@@H]2CCN(C3CC3)C(=O)[C@@H]21)N1CCOCC1` was tested. Which Potency did it give?
The Potency was “inactive”.

`C#CCOCCOCCOCCNc1nc(N2CCN(C(=O)C([C@@H](C)CC)n3cc(C(N)CO)nn3)CC2)nc(N2CCN(C(=O)C([C@@H](C)CC)n3cc(C(N)COC(=O)C(F)(F)F)nn3)CC2)n1` (some centres undefined) was tested. Which Potency did it give?
Its Potency is inconclusive: 28.2 µM [inhibitor, single point].

`CC(c1ccc2c(c1)OCO2)n1c(=S)[nH]c2ccccc2c1=O` (centres undefined) was tested. Which Potency did it give?
The Potency was inconclusive: 12.6 µM [inhibitor, partial curve, poor fit].

With `COc1cc(/C=N/NC(=O)c2ccc(-c3ccccc3)cc2)cc(OC)c1OC` as the compound, how does the Potency read?
Its Potency is inconclusive: 100 µM [inhibitor, partial curve, poor fit].

For `COc1cc(/C=C2\SC(=Nc3cccnc3)NC2=O)cc(OC)c1OC`, which Potency is on record?
The Potency was “inactive”.

`Cc1nnc(N/N=C/c2cc(C)n(-c3ccc(F)cc3)c2C)n1N` was tested. Which Potency did it give?
Its Potency is inconclusive: 3.98 µM [inhibitor, full curve, poor fit].

Which Potency does the source give for `Cc1cc(C)cc(NC(=O)c2c(C)oc3nc(C)nc(N4CCCC4)c23)c1` here?
The Potency was “inactive”.

With `O=C(C[n+]1ccccc1Cl)c1ccc(Br)cc1` as the compound, how does the Potency read?
Its Potency is inconclusive: 89.1 µM [inhibitor, partial curve].

`Cc1cc2c(c(=O)n1Cc1ccco1)C(c1cccnc1)C(C#N)=C(N)O2` (centres undefined) was tested. Which Potency did it give?
The Potency was inconclusive: 28.2 µM [inhibitor, full curve].

`Cc1cccc(NC(=O)c2sc3nc(-c4cc5ccc(O)cc5oc4=O)[nH]c(=O)c3c2C)c1` was tested. Which Potency did it give?
The Potency was “inactive”.

`COc1cccc(NC(=O)CNc2cc(S(=O)(=O)N3CCOCC3)ccc2N2CCCC2)c1` was tested. Which Potency did it give?
The Potency was “inactive”.

`O=C(COc1ccccc1F)Nc1ccc(OCc2cc(=O)n3ccccc3n2)cc1` was tested. Which Potency did it give?
The Potency was “inactive”.

With `O=C(CN1C(=O)S/C(=C\c2ccccc2)C1=O)NC1CCS(=O)(=O)C1` (centres undefined) as the compound, how does the Potency read?
The Potency was “inactive”.

How did the Potency turn out when `O=C(CN1CCN(c2ccccc2F)CC1)NCc1ccccc1` was run?
Its Potency is “inactive”.

`CN=C(c1ccco1)n1c(=S)nc(-c2ccco2)n(C)c1=S` was tested. Which Potency did it give?
Its Potency is inconclusive: 20 µM [inhibitor, partial curve, poor fit].

Which Potency does the source give for `Cc1nc2sccn2c(=O)c1Cl` here?
Its Potency is “inactive”.

How did the Potency turn out when `COc1cc([N+](=O)[O-])ccc1NC(=S)N1CCN(c2ccccn2)CC1` was run?
Its Potency is inconclusive: 20 µM [inhibitor, partial curve].

`CCCNC(=O)CN1CCN(c2ccc(NC(=O)c3ccc(OC)cc3)cc2C(=O)O)CC1` was tested. Which Potency did it give?
The Potency was “inactive”.

How did the Potency turn out when `O=C(Sc1n[nH]c(=O)[nH]c1=O)c1ccccc1` was run?
Its Potency is inconclusive: 39.8 µM [inhibitor, partial curve, poor fit].

Which Potency does the source give for `CC(C)CNC(=O)COC(=O)c1c2c(nc3ccccc13)/C(=C/c1cccs1)CC2` here?
Its Potency is inconclusive: 35.5 µM [inhibitor, partial curve, poor fit].

How did the Potency turn out when `CCOc1ccccc1N1CC(C(=O)N(CC)C2CCS(=O)(=O)C2)CC1=O` (centres undefined) was run?
The Potency was inconclusive: 25.1 µM [inhibitor, full curve].

`Nc1nc(SCC(=O)c2cccc([N+](=O)[O-])c2)n[nH]1` was tested. Which Potency did it give?
Its Potency is inconclusive: 35.5 µM [inhibitor, partial curve, poor fit].

Which Potency does the source give for `CCO[C@H]1OC(C(=O)NCc2ccccc2)=C[C@@H](c2coc3ccccc3c2=O)[C@@H]1CCCO` here?
The Potency was inconclusive: 35.5 µM [inhibitor, partial curve].

With `C(=N\Nc1nc2ccccc2[nH]1)/c1ccc2c(c1)OCCO2` as the compound, how does the Potency read?
Its Potency is inconclusive: 100 µM [inhibitor, single point].

For `CCN1C[C@@H]2[C@@H]3C(=O)N(Cc4ccccc4)C(=O)[C@@H]3[C@](C)(C1=O)N2C(=O)c1ccc(F)cc1`, which Potency is on record?
The Potency was inconclusive: 100 µM [inhibitor, single point].

`CC(Nc1nc(-c2ccc(F)cc2)cs1)c1nc2cc(C(F)(F)F)ccc2n1CCCO` (centres undefined) was tested. Which Potency did it give?
Its Potency is inconclusive: 17.8 µM [inhibitor, partial curve].

With `Cc1cc(C)cc(N(CCC#N)C(=O)CN2C(=O)NC3(CCCC3)C2=O)c1` as the compound, how does the Potency read?
The Potency was inconclusive: 89.1 µM [inhibitor, single point].

How did the Potency turn out when `O=Cc1c[nH]c2ccc(NC(=O)OCc3ccccc3)cc12` was run?
Its Potency is inconclusive: 89.1 µM [inhibitor, partial curve].

— PubChem BioAssay AID588590 (National Center for Advancing Translational Sciences (NCATS), 2011)
